Experimental data published in PMC11283696.
The exact form of at least one protein or probe is not confirmed. At least one result comes from cells or an extract, where the contact may be indirect. At least one verdict rests on a figure or table, not on a statement of the authors. Where a protein sequence is shown, tags need not be part of it.

Target: T1, hnRNPM (UniProt P52272)
T1 sequence (looked up, limits assumed): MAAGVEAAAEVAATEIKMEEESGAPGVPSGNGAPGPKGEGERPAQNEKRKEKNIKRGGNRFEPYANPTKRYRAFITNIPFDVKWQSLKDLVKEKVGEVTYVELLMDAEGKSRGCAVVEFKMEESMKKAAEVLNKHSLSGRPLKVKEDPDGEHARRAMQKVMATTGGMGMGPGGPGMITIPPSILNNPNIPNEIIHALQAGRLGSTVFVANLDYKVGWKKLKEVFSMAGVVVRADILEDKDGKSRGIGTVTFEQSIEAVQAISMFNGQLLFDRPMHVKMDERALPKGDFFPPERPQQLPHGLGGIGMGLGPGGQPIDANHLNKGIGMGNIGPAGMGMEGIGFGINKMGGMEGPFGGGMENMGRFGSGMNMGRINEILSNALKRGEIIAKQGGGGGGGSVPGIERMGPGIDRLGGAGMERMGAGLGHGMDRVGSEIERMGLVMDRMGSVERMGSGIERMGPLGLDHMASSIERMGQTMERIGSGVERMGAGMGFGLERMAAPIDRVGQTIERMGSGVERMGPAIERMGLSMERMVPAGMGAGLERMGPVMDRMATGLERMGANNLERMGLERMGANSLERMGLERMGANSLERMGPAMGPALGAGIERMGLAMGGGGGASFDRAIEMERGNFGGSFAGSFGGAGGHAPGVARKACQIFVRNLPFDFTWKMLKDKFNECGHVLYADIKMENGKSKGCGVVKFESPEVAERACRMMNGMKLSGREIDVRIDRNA
Assay: pull-down, MS and Western blot
Conditions: MSC lysate; 3' biotin-TEG; pull-down: streptavidin beads, cell lysis buffer, 2 h at 4 C; protein in an extract; label: biotin; single-stranded DNA

“CTCTTTTAATGTTCTAATGTTTTCT [biotin-LINC00698 (synthesized probe)]”: binds.
